From ChEMBL document CHEMBL3988442, “University of Dundee, Small-Polar-MMV Screening Library” (2021).

By UniProt entry, the sequences of proteins in these tests, tags left out.
UniProt P9WNZ1, whole entry: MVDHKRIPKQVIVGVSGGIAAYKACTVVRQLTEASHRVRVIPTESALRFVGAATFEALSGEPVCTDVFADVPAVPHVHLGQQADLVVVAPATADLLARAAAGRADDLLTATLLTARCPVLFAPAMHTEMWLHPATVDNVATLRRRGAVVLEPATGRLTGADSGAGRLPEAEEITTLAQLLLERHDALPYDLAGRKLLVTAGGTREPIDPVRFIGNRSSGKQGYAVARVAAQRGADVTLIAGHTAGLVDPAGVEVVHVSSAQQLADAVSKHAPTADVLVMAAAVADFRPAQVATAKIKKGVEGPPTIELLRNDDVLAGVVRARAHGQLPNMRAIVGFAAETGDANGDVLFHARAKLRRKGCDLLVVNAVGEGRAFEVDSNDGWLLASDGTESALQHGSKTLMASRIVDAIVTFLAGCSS

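Enzyme assay of CoaBC with a phosphate dye (Biomol Green) read at 650 nm. Target: Coenzyme A biosynthesis protein CoaBC, Mycobacterium tuberculosis (UniProt P9WNZ1). Concentration: 30 µM. Direction is inferred from only a few compounds that gave an IC50; most scored high, so higher reads as stronger inhibition. Most strong results did not repeat in a second test. Size under these conditions: about 67,000 compounds, about 40 of them at 50% or above in at least one test.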

The filed quantity is “Percent Effect” (%).
The record does not define 0% and 100%; most values in the screen are far below 50% and negative numbers occur (in some assays of this library far below -100).
The compounds are a random part of those screened.
Two or more numbers in one place are separate tests of the same structure; such repeats can differ widely.

SMILES | effect
CN(Cc1ccc(C#N)cc1)Cn1nccc1-c1cccnc1 | 12.1%
Cc1ncsc1CN1C[C@@H]2COC[C@]2(C(=O)NCC2CC2)C1 | 15.8%
Cc1nn(C)cc1S(=O)(=O)N[C@@H]1CCC[C@@H](n2ccnc2)[C@@H]1O | 2.67%
CCc1ccc(C(=O)O)cc1S(=O)(=O)N(C)c1cccc(C)c1 | -10.26%
CCCn1nccc1NC(=O)c1ccc(Cl)c(N2CCNC2=O)c1 | 5.165%
O=C(O)c1cc(-c2ccoc2)cc(S(=O)(=O)N2CCSCC2)c1 | 13.76% & 21.37%
O=C(c1ccccn1)N1CCC(Cc2cnc3[nH]ccc3c2)CC1 | 1.211%
CN(CC(=O)Nc1cccnc1)C1CCCN(c2cccnn2)C1 (stereo not shown) | 3.448%
COc1ccccc1C1=NOC(CC2(C(=O)NCCO)CCOCC2)C1 (stereo not shown) | 3.893%
Cc1ccc(OC2(C(=O)NC(C)c3csc(C)n3)CCNCC2)cc1 (stereo not shown) | 6.289%
Cc1cn[nH]c1C1COCCN1C(=O)c1ccc2[nH]nnc2c1 (stereo not shown) | -1.826%
Clc1ccc2nc(N3CCC(NCCCC4CCOC4)CC3)sc2c1 (stereo not shown) | 1.491%
COc1cccc(C(CO)NC(=O)NC(C)C)c1 (stereo not shown) | 7.066%
Cc1[nH]c2ccc(CNc3cc(C#N)ccn3)cc2c1C | 0.6494%
CC(C)C1CN(C(=O)c2cc(F)cc3[nH]cnc23)CCS1 (stereo not shown) | -2.066%
CNc1nc(C(=O)N2C[C@H]3CC[C@@H]2CN(S(C)(=O)=O)C3)cs1 | 2.828%
Cc1cc(C(=O)N2CCCC(n3cncn3)C2)no1 (stereo not shown) | 3.158%
Cn1ccnc1C(=O)N1C[C@@H]2CCN(c3cnccn3)C[C@@H]2C1 | 6.404%
CC(C)NC(=O)CN1CCSC2(CCCCC2)C1 | 1.951%
Cc1nc[nH]c1CN1C[C@@H]2CC[C@H](C1)N(C(=O)CCc1cnn(C)c1)C2 | 8.861%
CCOc1ccccc1C(CC(=O)Nc1ccccc1F)NC(C)=O (stereo not shown) | -1.596%
NC(=O)Cn1ccc(NC(=O)C2(c3cccc(Cl)c3)CC2)n1 | 1.956%
CN1CC[C@H]2CN(C(=O)c3csc(Cc4ccccc4)n3)C[C@H]21 | 6.813%
Cc1ccc(S(=O)(=O)NCCc2ccoc2)s1 | 0.7663%
COCCOc1cccc(CNCc2c(C)nn(C)c2N(C)C)c1 | 1.79%
Cn1cc(N2CC3(CCN(Cc4ccsc4)CC3)OCC2=O)cn1 | -2.101%
CCCn1[nH]cc/c1=N\C(=O)CN1CCc2c(nc(C(C)C)n2C)C1 | -3.846%
Cc1onc(-c2ccncc2)c1C(=O)NC1CCCOC1 (stereo not shown) | -6.78%
CCn1cnnc1CNC(=O)N1CCN(CCc2ccccc2)CC1 | 0.2611%
CC(Cn1ccnc1)NC(=O)C1(c2ccc3c(c2)OCCO3)CCCC1 (stereo not shown) | 4.37%
Cc1occc(=O)c1OCc1noc(C(=O)NC2CCCC2)n1 | 2.421%
CCN1CCC2(CCC(=O)N2Cc2cccc(C)n2)CC1 | -0.2418%
CC(C)(O)CN1CCN(C(=O)c2ccc(Cl)c3cccnc23)CC1 | 2.368%
CCOCCCC(=O)NCc1cn2cc(Br)ccc2n1 | 3.914%
Cc1cc(NC(=O)NCc2nccn2C)ccc1OC(C)C | 3.306%
COCCCNc1cc(C)nn2cnnc12 | -3.233%
O=S(=O)(CCN1CCCC1Cn1cncn1)c1ccccc1 (stereo not shown) | -2.145%
CC(=O)N1CCC2(CC1)C(=O)N(c1cccnc1)c1ccc(F)cc12 | 4.167%
Cc1c[nH]c(CN2CCOC(c3ccc(Cl)cc3)C2)c(C)c1=O (stereo not shown) | 10.77%
FC(F)c1nnc2ccc(N3CCC4(CCOC4)C3)nn12 (stereo not shown) | -1.789%
Cc1ccc(CNC(=O)CC2C(=O)NCCN2Cc2ccccc2C)s1 (stereo not shown) | -6.291%
C=C(C)CN(CC)C(=O)c1cc(Cl)ccc1NS(C)(=O)=O | 2.061%
CS(=O)(=O)CCNC(=O)Nc1ccc(Cl)cc1-n1cccc1 | -2.89%
Cc1ccc(OCCN(C)C(C)c2cccc(S(N)(=O)=O)c2)cc1 (stereo not shown) | -8.043%
Cc1ncsc1C(=O)N(C)Cc1ccc(Br)o1 | 1.811%
CNC(=O)CS(=O)(=O)Cc1ccc(OC)c(F)c1 | 0.9756%
CCc1cnc(C)nc1NC1CC(=O)N(CC)C1 (stereo not shown) | 7.767%
Cc1ccc(C)c(CS(=O)(=O)CC(=O)NCCCOC(C)C)c1 | -1.673%
Cn1c(C2CC2)nc2c1CCN(CC(=O)NC1CCCCNC1=O)C2 (stereo not shown) | 2.871%
Cn1cc(CCNCC2CNc3ccnn3C2)cn1 (stereo not shown) | -25%
CCc1ccc(NC(=O)N2C[C@H]3C[C@H](C(=O)NC4CCC4)[C@@H](C2)O3)cc1 | 1.091%
CCn1ccnc1SCCn1cnc2ccsc2c1=O | 6.876%
CC(C)n1cnnc1CN1CCC2(CCCN(C3CCCCC3)C2=O)C1 (stereo not shown) | 7.916%
O=C(Nc1ccc(-c2csnn2)cc1)N1CCN2CCCCC2C1 (stereo not shown) | 0.2404%
CN1C[C@@H](C(=O)N(C)C)[C@@]2(CCc3ccccc3C(=O)N2)C1 | -3.641%
CCOc1cccc(CCNC(=O)Cc2ccn[nH]2)n1 | 0.9756%
Cc1ccc(C(=O)N2CCC3(CC2)CC(N2CCCC2)C3)cc1 | -0.7255%
CC(C)(C)n1ncc2c(=O)n(CC(=O)NCc3ccccc3Cl)cnc21 | 0.2114%
Cc1noc(-c2ccc(N3CCN(Cc4ncccc4C)CC3)nc2)n1 | -1.459%
CCOC(=O)CNC(=O)NCc1cccn1Cc1ccccc1C | 1.772%
O=C(c1cccc2ncccc12)N1CCCN(c2cccnn2)CC1 | 17.49%
Cc1cnn(CC2CN(Cc3nccn3C)CCO2)c1 (stereo not shown) | 8.094%
COCCNC(=O)C1CN(Cc2csc(C)n2)Cc2ccnn2C1 (stereo not shown) | 1.269%
CC1(Cc2ccccn2)NCCc2[nH]cnc21 (stereo not shown) | 4.176%
CC(C)Nc1nc2c(s1)C(=O)CN(C(=O)NCc1ccccc1)C2 | 0.3614%
Cn1ccc(C(=O)Nc2nc(-c3ccc(Cl)cc3)n[nH]2)cc1=O | 5.198%
CC(C)n1nc2c(cc1=O)CN(CC1CCCCO1)CC2 (stereo not shown) | 5.179%
O=C(NCCNCc1cccc2c1OCCCO2)C1CCCC1 | 2.822%
O=C(NC1CCCN(CCCc2ccccc2)C1)C1=CCCCC1 (stereo not shown) | 3.971%
CC1CN(C(=O)NCc2ccn(C)c2)CCN1CC(F)(F)F (stereo not shown) | 3.423%
Cc1oncc1C(=O)N1CCCc2c(C#N)nn(C)c2C1 | -35.95%
O=C1CC(N(C(=O)CCc2cc(F)ccc2F)C2CC2)C(=O)N1 (stereo not shown) | 7.107%
COc1ccc(COCC(O)CSc2ccc(NC(C)=O)cc2)cc1 (stereo not shown) | 1.151%
O=C(NCc1cnc2n1CCN(CC1CC1)C2)C1CC1 | -5.432%
CCn1ncc(C(=O)NCCc2nc(-c3ccc(C)cc3)n[nH]2)c1C | 10.43%
CCNC(=O)[C@@H]1C[C@@H](N)CN1C(=O)Cc1cc(C)ccc1C | 6.427%
Cc1nn(C)c2ncnc(NCC(O)CN3CCCCC3)c12 (stereo not shown) | -2.915%
CCc1cnc(CN(C)C2CCN(CCn3cc(C#N)cn3)C2)o1 (stereo not shown) | 8.323%
O=C(NCCN1CCCCC1)c1nc(-c2cccc3[nH]ccc23)no1 | 3.535%
O=S(=O)(CC1CCCCC1)NCc1ccnc(O)c1 | 5.242%
Cc1cc(NCCc2nnc(N)s2)nc(-c2cccnc2)n1 | -5.679%
CN(Cc1cc(C2CC2)[nH]n1)C(=O)c1cnn2ccn(C)c12 | 2.913%

For reference, 8 entries once more:

Cc1ccc(OC2(C(=O)NC(C)c3csc(C)n3)CCNCC2)cc1 (stereo not shown) read 6.289%.
CCc1ccc(NC(=O)N2C[C@H]3C[C@H](C(=O)NC4CCC4)[C@@H](C2)O3)cc1 read 1.091%.
Cn1cc(CCNCC2CNc3ccnn3C2)cn1 (stereo not shown) read -25%.
CC(C)(C)n1ncc2c(=O)n(CC(=O)NCc3ccccc3Cl)cnc21 read 0.2114%.
O=C(NCCNCc1cccc2c1OCCCO2)C1CCCC1 read 2.822%.
Cc1cnn(CC2CN(Cc3nccn3C)CCO2)c1 (stereo not shown) read 8.094%.
CCc1cnc(CN(C)C2CCN(CCn3cc(C#N)cn3)C2)o1 (stereo not shown) read 8.323%.
CCNC(=O)[C@@H]1C[C@@H](N)CN1C(=O)Cc1cc(C)ccc1C read 6.427%.